Results: the supplement of paper PMC10307832

How the values were obtained:
Assay in all cases: relative viability (nuclei count vs DMSO), 5 days (fraction); higher = more cells survive
[1] = compound: CN[C@@H]1C[C@H]2O[C@@](C)([C@@H]1OC)n1c3ccccc3c3c4c(c5c6ccccc6n2c5c31)C(=O)NC4 [Staurosporine] + CC1(C)CCC(c2ccc(Cl)cc2)=C(CN2CCN(c3ccc(C(=O)NS(=O)(=O)c4ccc(N[C@H](CCN5CCOCC5)CSc5ccccc5)c(S(=O)(=O)C(F)(F)F)c4)cc3)CC2)C1 [Navitoclax] (partner 0.5 µM)
Procedure, shortened: (§1)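 Each reported value is a median over duplicate plates. It expresses relative viability: treated-well nuclei count divided by vehicle-well nuclei count. Lung cancer cell lines in 1536-well plates were dosed by pin tool a day after seeding, alone with one drug or with a fixed anchor-drug dose plus five library-drug doses (not always all listed) in √10 steps, and nuclei were counted after 5 days.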

[2] = compound: CN[C@@H]1C[C@H]2O[C@@](C)([C@@H]1OC)n1c3ccccc3c3c4c(c5c6ccccc6n2c5c31)C(=O)NC4 [Staurosporine] + CC(=O)c1c(C)c2cnc(Nc3ccc(N4CCNCC4)cn3)nc2n(C2CCCC2)c1=O [Palbociclib] (partner 0.5 µM)
Procedure, shortened: as §1

[3] = compound: CN[C@@H]1C[C@H]2O[C@@](C)([C@@H]1OC)n1c3ccccc3c3c4c(c5c6ccccc6n2c5c31)C(=O)NC4 [Staurosporine] + Cc1nc(NC(=O)N2CCC[C@H]2C(N)=O)sc1-c1ccnc(C(C)(C)C(F)(F)F)c1 [Alpelisib] (partner 2 µM)
Procedure, shortened: as §1

Staurosporine = compound: CN[C@@H]1C[C@H]2O[C@@](C)([C@@H]1OC)n1c3ccccc3c3c4c(c5c6ccccc6n2c5c31)C(=O)NC4 [Staurosporine]
Procedure, shortened: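 Viability was read as treated-well nuclei divided by vehicle-well nuclei, using the median across plates. Lung cancer cell lines in 1536-well plates were kept overnight at 37 °C, pinned with five √10-spaced library-drug doses, and after 5 days were Hoechst-stained, imaged at 4× and counted in MetaXpress. Plates passed only with control CV below 25% and at least one doubling.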

[4] = compound: CN[C@@H]1C[C@H]2O[C@@](C)([C@@H]1OC)n1c3ccccc3c3c4c(c5c6ccccc6n2c5c31)C(=O)NC4 [Staurosporine] + C[C@@H](Oc1cc(-c2cnn(C3CCNCC3)c2)cnc1N)c1c(Cl)ccc(F)c1Cl [Crizotinib] (partner 1 µM)
Procedure, shortened: as §1

[5] = compound: CN[C@@H]1C[C@H]2O[C@@](C)([C@@H]1OC)n1c3ccccc3c3c4c(c5c6ccccc6n2c5c31)C(=O)NC4 [Staurosporine] + CS(=O)(=O)N1CCN(Cc2cc3nc(-c4cccc5[nH]ncc45)nc(N4CCOCC4)c3s2)CC1 [Pictilisib] (partner 1 µM)
Procedure, shortened: as §1

Staurosporine + AZD7762 = compound: CN[C@@H]1C[C@H]2O[C@@](C)([C@@H]1OC)n1c3ccccc3c3c4c(c5c6ccccc6n2c5c31)C(=O)NC4 [Staurosporine] + NC(=O)Nc1cc(-c2cccc(F)c2)sc1C(=O)N[C@H]1CCCNC1 [AZD7762] (partner 0.2 µM)
Procedure, shortened: as §1

[6] = compound: CN[C@@H]1C[C@H]2O[C@@](C)([C@@H]1OC)n1c3ccccc3c3c4c(c5c6ccccc6n2c5c31)C(=O)NC4 [Staurosporine] + CC(C)C[C@H](NC(=O)[C@H](Cc1ccccc1)NC(=O)c1cnccn1)B(O)O [Bortezomib] (partner 0.002 µM)
Procedure, shortened: as §1

[7] = compound: CN[C@@H]1C[C@H]2O[C@@](C)([C@@H]1OC)n1c3ccccc3c3c4c(c5c6ccccc6n2c5c31)C(=O)NC4 [Staurosporine] + O=C(CCCCCCC(=O)Nc1ccccc1)NO [Vorinostat] (partner 1 µM)
Procedure, shortened: as §1

[8] = compound: CN[C@@H]1C[C@H]2O[C@@](C)([C@@H]1OC)n1c3ccccc3c3c4c(c5c6ccccc6n2c5c31)C(=O)NC4 [Staurosporine] + CC(=O)Nc1cccc(-n2c(=O)n(C3CC3)c(=O)c3c(Nc4ccc(I)cc4F)n(C)c(=O)c(C)c32)c1 [Trametinib] (partner 0.02 µM)
Procedure, shortened: as §1

[9] = compound: CN[C@@H]1C[C@H]2O[C@@](C)([C@@H]1OC)n1c3ccccc3c3c4c(c5c6ccccc6n2c5c31)C(=O)NC4 [Staurosporine] + COc1cc2c(Oc3ccc(NC(=O)C4(C(=O)Nc5ccc(F)cc5)CC4)cc3F)ccnc2cc1OCCCN1CCOCC1 [Foretinib] (partner 0.25 µM)
Procedure, shortened: as §1

[10] = compound: CN[C@@H]1C[C@H]2O[C@@](C)([C@@H]1OC)n1c3ccccc3c3c4c(c5c6ccccc6n2c5c31)C(=O)NC4 [Staurosporine] + C[C@]1(O)C[C@@H](c2nc(-c3ccc4ccc(-c5ccccc5)nc4c3)c3c(N)nccn32)C1 [Linsitinib] (partner 1 µM); conditions: first compound 0.005 µM
Procedure, shortened: as §1

[11] = compound: CN[C@@H]1C[C@H]2O[C@@](C)([C@@H]1OC)n1c3ccccc3c3c4c(c5c6ccccc6n2c5c31)C(=O)NC4 [Staurosporine] + CS(=O)(=O)CCNCc1ccc(-c2ccc3ncnc(Nc4ccc(OCc5cccc(F)c5)c(Cl)c4)c3c2)o1 [Lapatinib] (partner 2 µM); conditions: first compound 0.05 µM
Procedure, shortened: as §1

[12] = compound: CN[C@@H]1C[C@H]2O[C@@](C)([C@@H]1OC)n1c3ccccc3c3c4c(c5c6ccccc6n2c5c31)C(=O)NC4 [Staurosporine] + N=C(N)NC(=N)NCCc1ccccc1 [Phenformin] (partner 250 µM)
Procedure, shortened: as §1

Staurosporine + Olaparib = compound: CN[C@@H]1C[C@H]2O[C@@](C)([C@@H]1OC)n1c3ccccc3c3c4c(c5c6ccccc6n2c5c31)C(=O)NC4 [Staurosporine] + O=C(c1cc(Cc2n[nH]c(=O)c3ccccc23)ccc1F)N1CCN(C(=O)C2CC2)CC1 [Olaparib] (partner 8 µM); conditions: first compound 0.005 µM
Procedure, shortened: as §1

Staurosporine + OSI-027 = compound: CN[C@@H]1C[C@H]2O[C@@](C)([C@@H]1OC)n1c3ccccc3c3c4c(c5c6ccccc6n2c5c31)C(=O)NC4 [Staurosporine] + COc1cccc2cc(-c3nc([C@H]4CC[C@H](C(=O)O)CC4)n4ncnc(N)c34)[nH]c12 [OSI-027] (partner 0.5 µM)
Procedure, shortened: as §1

[13] = compound: CN[C@@H]1C[C@H]2O[C@@](C)([C@@H]1OC)n1c3ccccc3c3c4c(c5c6ccccc6n2c5c31)C(=O)NC4 [Staurosporine] + Cc1nc(Nc2ncc(C(=O)Nc3c(C)cccc3Cl)s2)cc(N2CCN(CCO)CC2)n1 [Dasatinib] (partner 0.075 µM)
Procedure, shortened: as §1

[14] = compound: CN[C@@H]1C[C@H]2O[C@@](C)([C@@H]1OC)n1c3ccccc3c3c4c(c5c6ccccc6n2c5c31)C(=O)NC4 [Staurosporine] + Cc1cc(Nc2cc(N3CCN(C)CC3)nc(Sc3ccc(NC(=O)C4CC4)cc3)n2)n[nH]1 [Tozasertib] (partner 0.1 µM); conditions: first compound 0.5 µM
Procedure, shortened: as §1

## A-427
[1]; first compound 0.5 µM
  relative viability: 0.122

## ABC-1
[2]; first compound 0.005 µM
  relative viability: 0.454

## BEN
[3]; first compound 0.01581 µM
  relative viability: 1.05

## CAL-12T
Staurosporine; 0.05 µM
  relative viability: 0.208

## COR-L 105
[4]; first compound 0.05 µM
  relative viability: 0.208

## ChaGo-K-1
[5]; first compound 0.5 µM
  relative viability: 0.241

## EKVX
Staurosporine + AZD7762; first compound 0.5 µM
  relative viability: 0.114
[6]; first compound 0.1581 µM
  relative viability: 0.208

## EMC-BAC-2
[7]; first compound 0.01581 µM
  relative viability: 0.109
[8]; first compound 0.5 µM
  relative viability: 0.198

## HARA
[1]; first compound 0.005 µM
  relative viability: 1.16
[4]; first compound 0.5 µM
  relative viability: 0.126
Staurosporine + AZD7762; first compound 0.1581 µM
  relative viability: 0.219

## HCC-44
[2]; first compound 0.005 µM
  relative viability: 1.02
[8]; first compound 0.1581 µM
  relative viability: 0.332

## HCC-78
[9]; first compound 0.5 µM
  relative viability: 0.383

## HCC-827
[1]; first compound 0.01581 µM
  relative viability: 0.871
[3]; first compound 0.1581 µM
  relative viability: 0.642

## HOP-62
Staurosporine + AZD7762; first compound 0.05 µM
  relative viability: 0.126

## IA-LM
[10]
  relative viability: 0.494

## LK-2
[11]
  relative viability: 0.981
[12]; first compound 0.05 µM
  relative viability: 0.219
Staurosporine + Olaparib
  relative viability: 0.989

## NCI-H23
[5]; first compound 0.05 µM
  relative viability: 0.197

## NCI-H322M
[12]; first compound 0.005 µM
  relative viability: 0.704
[12]; first compound 0.05 µM
  relative viability: 0.405

## NCI-H358
[7]; first compound 0.005 µM
  relative viability: 0.432

## NCI-H460
[7]; first compound 0.005 µM
  relative viability: 0.454

## NCI-H522
[2]; first compound 0.05 µM
  relative viability: 0.891

## NCI-H596
Staurosporine; 0.005 µM
  relative viability: 1.17

## NCI-H647
[2]; first compound 0.01581 µM
  relative viability: 0.125

## NCI-H838
[7]; first compound 0.5 µM
  relative viability: 0.126
Staurosporine + OSI-027; first compound 0.5 µM
  relative viability: 0.126

## NCI-H1437
[10]
  relative viability: 0.734
[4]; first compound 0.05 µM
  relative viability: 0.677

## NCI-H1563
Staurosporine; 0.5 µM
  relative viability: 0.486

## NCI-H1734
[7]; first compound 0.05 µM
  relative viability: 0.219
[13]; first compound 0.01581 µM
  relative viability: 0.175

## NCI-H1792
[1]; first compound 0.1581 µM
  relative viability: 0.129
[4]; first compound 0.005 µM
  relative viability: 1.11

## NCI-H1793
[5]; first compound 0.5 µM
  relative viability: 0.197

## NCI-H1915
[9]; first compound 0.005 µM
  relative viability: 1.12
[5]; first compound 0.1581 µM
  relative viability: 0.109

## NCI-H1944
[9]; first compound 0.01581 µM
  relative viability: 0.749

## NCI-H1975
Staurosporine + OSI-027; first compound 0.1581 µM
  relative viability: 0.112
[6]; first compound 0.5 µM
  relative viability: 0.109

## NCI-H2009
Staurosporine + OSI-027; first compound 0.01581 µM
  relative viability: 0.175

## NCI-H2023
[9]; first compound 0.01581 µM
  relative viability: 0.383

## NCI-H2085
[12]; first compound 0.005 µM
  relative viability: 0.552
[14]
  relative viability: 0.332

## NCI-H2126
[7]; first compound 0.5 µM
  relative viability: 0.219

## NCI-H2170
[8]; first compound 0.005 µM
  relative viability: 1.04

## NCI-H2342
[12]; first compound 0.01581 µM
  relative viability: 0.405

## NCI-H2347
[3]; first compound 0.5 µM
  relative viability: 0.354

## NCI-H2405
Staurosporine; 0.005 µM
  relative viability: 0.421
[9]; first compound 0.05 µM
  relative viability: 0.125
[2]; first compound 0.1581 µM
  relative viability: 0.129
Staurosporine + AZD7762; first compound 0.1581 µM
  relative viability: 0.109

## NCI-H3122
Staurosporine + AZD7762; first compound 0.005 µM
  relative viability: 1.07

## PC-3 [JPC-3]
[13]; first compound 0.005 µM
  relative viability: 0.954
[4]; first compound 0.005 µM
  relative viability: 1.11
[12]; first compound 0.005 µM
  relative viability: 0.494

## RERF-LC-KJ
[8]; first compound 0.05 µM
  relative viability: 0.421

## SK-LU-1
[13]; first compound 0.01581 µM
  relative viability: 0.112
